From PubChem BioAssay AID624291 (National Center for Advancing Translational Sciences (NCATS), 2012)
Hit rate of the full screen: of about 350,000 compounds, about 220 (0.063%) were called active. The inconclusive results got no clear call from the source; some entries with a clear call stand among them for comparison. Calls follow the shape of the dose curve; as a rule, active = well fitted activation curve with a large enough effect; inconclusive = small, poorly fitted or top-dose-only effect; inactive = no such curve, though single readings can be large or run the other way. Potencies beside an inconclusive call are fits to weak or partial responses and may not hold up.

Assay: qHTS for Activators of Integrin-Mediated Alleviation for Muscular Dystrophy; also: nearly all actives have a fitted effect of over 60% in size;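 as to activation: 100% = response of the positive control SU9516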
Conditions: alpha7betagal myoblasts, beta-gal FDG fluorescence, 48 h; activation: at 38.3 µM (top of the series)
How it was run: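 Alpha7betagal+/- myoblasts (passage 13) were plated 16-24 hr, then exposed to compounds (1:260 dilution of DMSO stock) for 48 hours at 37C. After MPER lysis, β-galactosidase reporter activity was read as FDG fluorescence (ex 480/em 540) after 30 minutes.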
Potency is read from the fitted curve at half-maximal effect.

Question: Which “activation” value does the source give for CNC(=O)CN(Cc1ccccc1)S(=O)(=O)c1ccc(Cl)cc1 here?
Answer: The value was inactive: 17.2%.

Question: With C=CCCC(=O)NC1CC(C)(C)Cc2c1cnn2-c1ccc(OC)cc1 (configuration not stated) as the molecule, how does the Potency read?
Answer: Its Potency is inconclusive: 1.58 µM [activator, partial curve, poor fit].

Question: For COc1ccccc1C(=O)Nc1nsc(-c2ccccc2)n1, which Potency is on record?
Answer: The Potency was inconclusive: 2.82 µM [activator, partial curve, poor fit].

Question: With COc1ccc(CCN2C(=O)CSC2c2cccc([N+](=O)[O-])c2)cc1OC (configuration not stated) as the molecule, how does the Potency read?
Answer: The Potency was inconclusive: 7.08 µM [activator, partial curve].

Question: For COc1ccccc1NS(=O)(=O)c1ccc(C)c(NC(=O)C2CCCO2)c1 (configuration not stated), which “activation” value is on record?
Answer: The value was inactive: 21.2%.

Question: For Cc1[nH]n(C(N)=S)c(=O)c1N=Nc1cccc([N+](=O)[O-])c1C, which Potency is on record?
Answer: Its Potency is inconclusive: 2.51 µM [activator, full curve, poor fit].

Question: With CSc1ccc(Cc2ccc(Cl)cc2Cl)nn1 as the molecule, how does the “activation” value read?
Answer: The value was inactive: -5.75%.

Question: Which Potency does the source give for O=C(COc1ncnc2ccccc12)NCc1ccc2c(c1)OCO2 here?
Answer: The Potency was inconclusive: 31.6 µM [activator, partial curve, poor fit].

Question: With N#CC1=C2SCCN2C(=O)C(C#N)C12CCCCC2 (configuration not stated) as the molecule, how does the Potency read?
Answer: The Potency was inconclusive: 20 µM [activator, single point].

Question: For COC(=O)c1ccc(Cn2cnc3cnccc32)cc1, which Potency is on record?
Answer: Its Potency is inconclusive: 3.55 µM [activator, single point].

Question: Which “activation” value does the source give for COc1cccc(NC(=O)c2cnc(SCC(=O)NCc3ccc4c(c3)OCO4)n(C)c2=O)c1 here?
Answer: Its value is inactive: -12.9%.

Question: With Cc1ccc2c(=O)c(CN3CCCCCC3)c(C)[nH]c2c1C as the molecule, how does the “activation” value read?
Answer: The value was inactive: -25%.

Question: With COc1ccccc1CNC(=O)COC(=O)c1cc(-c2ccco2)nc2ccccc12 as the molecule, how does the “activation” value read?
Answer: The value was inactive: -3.12%.

Question: For CC(C)OC(=O)CSc1nnc(CNc2ccc(Cl)cc2)n1C, which Potency is on record?
Answer: The Potency was inconclusive: 28.2 µM [activator, single point].

Question: For COc1cccc(NC(=O)C2C(c3ccccc3)C2(Cl)Cl)c1 (configuration not stated), which Potency is on record?
Answer: Its Potency is inconclusive: 28.2 µM [activator, single point].

Question: Which Potency does the source give for C=CCNC(=O)c1cc2c(=O)n3cccc(C)c3nc2s1 here?
Answer: Its Potency is inconclusive: 0.631 µM [activator, partial curve, poor fit].

Question: For COc1cccc(CNC(=O)CN(c2cc(C)cc(C)c2)S(=O)(=O)c2c(C)noc2C)c1, which “activation” value is on record?
Answer: The value was inactive: -4.87%.

Question: With CC(C)(C)c1ccc(NC(=O)COC(=O)c2ccc3ncsc3c2)cc1 as the molecule, how does the activation read?
Answer: Its activation is inconclusive: -36.6% [activator].

Question: With O=[N+]([O-])c1cccc(C(=S)N2CCCC2)c1 as the molecule, how does the Potency read?
Answer: The Potency was inconclusive: 28.2 µM [activator, single point].

Question: For CN(C)C(CNC(=O)c1ccc(C(=O)c2ccccc2)cc1)c1ccccc1 (configuration not stated), which “activation” value is on record?
Answer: Its value is inactive: -44%.

Question: Which Potency does the source give for CC(=O)Nc1ncc(N=Nc2cccc(C(F)(F)F)c2)s1 here?
Answer: The Potency was inconclusive: 14.1 µM [activator, single point].

Question: With S=C(N/N=C/c1ccccc1)N1CCOCC1 as the molecule, how does the “activation” value read?
Answer: The value was inactive: -40.7%.

Question: Which “activation” value does the source give for O=c1[nH]c(=S)[nH]cc1Oc1ccc(Br)cc1Br here?
Answer: The value was inactive: 15.1%.

Question: With O=C(c1cccs1)N1CCN(c2cccc(Cl)c2)CC1 as the molecule, how does the Potency read?
Answer: Its Potency is inconclusive: 2 µM [activator, partial curve, poor fit].

Question: Which “activation” value does the source give for O=S(=O)(c1ccccc1)N1CCN(c2nnc(-c3ccccc3)c3ccccc23)CC1 here?
Answer: The value was inactive: 3.31%.

Question: Which Potency does the source give for COC(=O)[C@@H](NC(=O)N1CCC(C)CC1)C(C)C here?
Answer: Its Potency is inconclusive: 28.2 µM [activator, single point].

Question: With Cc1cc(C)cc(NC(=O)Nc2cccnc2)c1 as the molecule, how does the Potency read?
Answer: The Potency was inconclusive: 10 µM [activator, single point].

Question: With Fc1ccc(NC(=S)Nc2cccc3ccccc23)cc1F as the molecule, how does the Potency read?
Answer: Its Potency is inconclusive: 3.55 µM [activator, single point].

Question: For Cc1cc(NC(=O)CSc2nc(N)c(NC(=O)c3ccc(F)c(F)c3)c(=O)[nH]2)no1, which Potency is on record?
Answer: The Potency was inconclusive: 2.51 µM [activator, full curve].

Question: For COc1ccc(C(=O)NNC(=O)CSc2nnc(-c3ccc(O)cc3)n2C)cc1, which “activation” value is on record?
Answer: Its value is inactive: 1.32%.

Question: Which “activation” value does the source give for CC(C)(C)c1cc(C(=O)N/N=C/c2ccc(F)cc2)n(-c2ccccc2)n1 here?
Answer: Its value is inactive: -22.1%.

Question: For Cc1cc(=O)[nH]c(SCc2ccc(Cl)cc2)n1, which Potency is on record?
Answer: The Potency was inconclusive: 10 µM [activator, partial curve, poor fit].

Question: With CCCn1nnnc1NCc1c(F)cccc1Cl as the molecule, how does the Potency read?
Answer: Its Potency is inconclusive: 3.16 µM [activator, single point].

Question: Which Potency does the source give for NC(=O)c1sc2nc3c(cc2c1N)CCC3 here?
Answer: Its Potency is inconclusive: 1.78 µM [activator, full curve, poor fit].

Question: For CCn1c(CNS(=O)(=O)c2ccc(Br)cc2)nnc1SC, which Potency is on record?
Answer: The Potency was inconclusive: 3.16 µM [activator, partial curve, poor fit].

Question: Which “activation” value does the source give for CC1CC(C)CN(C(=O)COC(=O)/C=C/c2ccco2)C1 (configuration not stated) here?
Answer: The value was inactive: 14.5%.

Question: With COc1cc2c(cc1OC)CN(C(=O)CSc1ccccc1C)CC2 as the molecule, how does the “activation” value read?
Answer: Its value is inactive: -17.3%.

Question: With COCCNc1oc(-c2ccccc2Cl)nc1S(=O)(=O)c1ccc(C)cc1 as the molecule, how does the Potency read?
Answer: Its Potency is inconclusive: 10 µM [activator, partial curve, poor fit].

Question: For CN1C(=O)N(C)C(NC(=O)Nc2ccccc2)C1NC(=O)Nc1ccccc1 (configuration not stated), which “activation” value is on record?
Answer: The value was inactive: 19.4%.

Question: For CCOCCCNCc1ccc(OCc2ccccc2C)c(OC)c1, which activation is on record?
Answer: Its activation is inconclusive: -56.8% [activator].

Question: Which “activation” value does the source give for O=C(Cn1cnc2c(oc3nc4c(cc32)CCCC4)c1=O)Nc1cccc(Cl)c1 here?
Answer: Its value is inactive: 5.91%.

Question: For CC(=O)c1ccc(NC(=O)CC(C)S(=O)(=O)c2ccc3c(c2)CCN3C(C)=O)cc1 (configuration not stated), which Potency is on record?
Answer: Its Potency is inconclusive: 5.62 µM [activator, partial curve, poor fit].

Question: Which Potency does the source give for CC(C)C[C@H](NC(=O)N1CCn2c1nc1ccccc12)C(=O)NCc1ccccc1 here?
Answer: Its Potency is inconclusive: 28.2 µM [activator, single point].

Question: Which Potency does the source give for Cc1ccc(NC(=O)CCS(=O)(=O)c2cc3c(cc2Cl)NC(=O)CO3)cc1 here?
Answer: The Potency was inconclusive: 2.24 µM [activator, full curve].

Question: Which “activation” value does the source give for Cc1ccc(-c2nc(C#N)c(NCCc3ccccn3)o2)cc1 here?
Answer: The value was inactive: -16.8%.

Question: For CCC(=O)OCC(=O)Nc1cc([N+](=O)[O-])ccc1OC, which “activation” value is on record?
Answer: Its value is inactive: -26.5%.

Question: Which “activation” value does the source give for Cc1cc(NCCCn2ccnc2)n2nc(C)c(-c3ccc(Cl)cc3)c2n1 here?
Answer: Its value is inactive: -62.2%.

Question: With CCCN(C(=O)COC(=O)CCOc1ccccc1C)c1c(N)n(Cc2ccccc2)c(=O)[nH]c1=O as the molecule, how does the Potency read?
Answer: Its Potency is inconclusive: 3.98 µM [activator, single point].

Question: For CCOC(=O)N1CCC(NC(=O)CS(=O)Cc2nc(-c3ccc(Cl)cc3)oc2C)CC1 (configuration not stated), which Potency is on record?
Answer: The Potency was inconclusive: 28.2 µM [activator, single point].

Question: Which Potency does the source give for FC(F)(F)c1ccccc1CN1CCCC(N2CCN(c3ccccc3)CC2)C1 (configuration not stated) here?
Answer: Its Potency is inconclusive: 0.708 µM [activator, full curve, poor fit].

Question: For CC(C)(C)OC(=O)NC(Cc1ccccc1)C(=O)O (configuration not stated), which Potency is on record?
Answer: The Potency was inconclusive: 5.01 µM [activator, single point].

Question: With Cc1cc(N/C=C/C(=O)c2cccc3ccccc23)no1 as the molecule, how does the Potency read?
Answer: The Potency was inconclusive: 15.8 µM [activator, single point].

Question: For Cc1cc(C)n(CCN(C)C(=O)C2CCC(=O)N(CCc3cccc(F)c3)C2)n1 (configuration not stated), which Potency is on record?
Answer: The Potency was inconclusive: 1.58 µM [activator, partial curve, poor fit].

Question: Which Potency does the source give for Nc1ncc(Br)cc1S(=O)(=O)NCCc1ccccc1 here?
Answer: The Potency was inconclusive: 5.62 µM [activator, partial curve].

Question: Which “activation” value does the source give for CCOc1ccc(NC(=O)CCC(=O)O)cc1 here?
Answer: The value was inactive: -9.93%.

Question: For CCOc1ncnc2c1[nH]c1ccccc12, which “activation” value is on record?
Answer: Its value is inactive: 0%.

Question: For Cn1cc(CCC(=O)NC2CC2)c2ccccc21, which Potency is on record?
Answer: Its Potency is inconclusive: 1.26 µM [activator, partial curve, poor fit].

Question: For Cc1cccc(C)c1NC(=O)CCCCCC1NC(=O)NC1C (configuration not stated), which “activation” value is on record?
Answer: Its value is inactive: -4.23%.

Question: With O=C(NC1CC1)c1ccc(N2CCCCC2)c([N+](=O)[O-])c1 as the molecule, how does the Potency read?
Answer: Its Potency is inconclusive: 3.55 µM [activator, partial curve, poor fit].

Question: Which Potency does the source give for CCn1c(SCC(=O)Nc2ccc(OC)cc2)nc2nc3c(cc2c1=O)CCCC3 here?
Answer: The Potency was inconclusive: 14.1 µM [activator, partial curve, poor fit].

Question: Which Potency does the source give for c1ccc(-c2nc(-c3ccc(-c4ccon4)s3)no2)cc1 here?
Answer: The Potency was inconclusive: 5.62 µM [activator, partial curve, poor fit].

Question: Which Potency does the source give for CC1(C)C([N+](=O)[O-])C(c2ccc(F)cc2)NC(c2ccc(F)cc2)C1[N+](=O)[O-] (configuration not stated) here?
Answer: The Potency was inconclusive: 10 µM [activator, partial curve, poor fit].

Question: For COc1ccc(O)c(C(=O)CC(=O)c2ccncc2)c1, which Potency is on record?
Answer: The Potency was inconclusive: 2.24 µM [activator, partial curve, poor fit].

Question: With O=C(COC(=O)c1cnc(Cl)c(Cl)c1)NC1CCCCCC1 as the molecule, how does the Potency read?
Answer: Its Potency is inconclusive: 0.316 µM [activator, partial curve, poor fit].

Question: With CCC(C)c1ccc(NC(=S)NCc2ccccc2OC)cc1 (configuration not stated) as the molecule, how does the Potency read?
Answer: Its Potency is inconclusive: 0.501 µM [activator, full curve, poor fit].

Question: For COc1ccc(CCNC(=O)c2cc(COc3c(C)cccc3C)on2)c(OC)c1, which Potency is on record?
Answer: Its Potency is inconclusive: 2.82 µM [activator, single point].

Question: Which “activation” value does the source give for COC(=O)CCS(=O)(=O)c1cc(Cl)ccc1Cl here?
Answer: The value was inactive: 4.41%.

Question: For CC(CCc1ccccc1)NC(=O)C1CC1 (configuration not stated), which Potency is on record?
Answer: The Potency was inconclusive: 3.98 µM [activator, single point].

Question: With CCN(CC)c1ccc2c(c1)oc(=O)c1c(Cl)cc(=O)oc12 as the molecule, how does the “activation” value read?
Answer: The value was inactive: -54.8%.

Question: Which Potency does the source give for COc1ccccc1CC(=O)Nc1ccc([N+](=O)[O-])cc1O here?
Answer: The Potency was inconclusive: 2 µM [activator, partial curve, poor fit].

Question: For Cc1cc(NC(=O)CS(=O)(=O)Cc2ccccc2)no1, which Potency is on record?
Answer: The Potency was inconclusive: 14.1 µM [activator, single point].

Question: With Cc1ccc2c(c1)N(CC(=O)NC1CCC(C)CC1)C(=O)CO2 (configuration not stated) as the molecule, how does the Potency read?
Answer: Its Potency is inconclusive: 12.6 µM [activator, partial curve, poor fit].
